Out of some 59,000 compounds screened, about 6,500 (11%) were called active. This list was built around the results that the source calls inconclusive (neither active nor inactive); the mix of calls is not that of the screen. No stated cut-off is given here; in the data, active means max dye-equivalent concentration above about 10 nM; inconclusive means mostly about 1.1 nM to 9.6 nM; inactive means weaker than that.
assay: qHTS Assay for Spectroscopic Profiling in A350 Spectral Region; details: Compound autofluorescence, 340/450 nm, Alexa 350 dye-equivalents; stronger effect = higher value

Row | Structure (SMILES) | max dye-equivalent concentration
1 | OCCOCCNc1ncnc2c1cnn2-c1ccccc1 | inconclusive: 5.9 nM
2 | O=S(=O)(/C=C/c1ccccc1)n1cnc2ccccc21 | inconclusive: 1.6 nM
3 | CCN1CCN(C(c2ccccc2F)c2nnnn2Cc2ccc3c(c2)OCO3)CC1 (configuration not stated) | inconclusive: 6 nM
4 | O=C(O)c1ccc2noc(-c3ccccc3)c2c1 | inconclusive: 9.4 nM
5 | COc1c2occc2cc2ccc(=O)oc12 | inconclusive: 1.4 nM
6 | CCCc1nnc(SCCSc2nnc(CCC)n2N)n1N | inactive
7 | CC(C)CN1CCC2(CC1)CCN(C(=O)c1ccncc1)CC2 | inactive
8 | Cc1cc(C)c2cc(C(O)c3nnnn3Cc3ccccc3)c(=O)[nH]c2c1 (configuration not stated) | inconclusive: 6.3 nM
9 | N#Cc1c(NC(=O)COC(=O)C2CC3C=CC2C3)oc(-c2ccccc2)c1-c1ccccc1 (configuration not stated) | inconclusive: 2.2 nM
10 | CCOC(=O)CNC(=O)c1cn(C)c(=O)c2cc(OC)c(OC)cc12 | inactive
11 | c1ccc(CC2CCN(c3nc(N4CCOCC4)nc(N4CCOCC4)n3)CC2)cc1 | inactive
12 | CCOC(=O)N1CCN(C(=O)c2cccc(NC(=O)c3ccco3)c2)CC1 | inconclusive: 2.3 nM
13 | CN1C(=O)c2oc3ccccc3c(=O)c2C1c1ccncc1 (configuration not stated) | inactive
14 | O=C(C1CCCN(Cc2ccncc2)C1)N1CCc2ccccc2C1 (configuration not stated) | inconclusive: 1.1 nM
15 | COc1ccc(Cn2c(CCC(=O)NCc3ccco3)nc3cccnc32)cc1 | inactive
16 | CCc1nc(N2CCN(C(=O)c3ccco3)CC2)c2oc3ccccc3c2n1 | inconclusive: 8.5 nM
17 | CCN(CC)C(=O)Oc1ccc2c(=O)c(-c3ccc(OC)cc3)coc2c1 | inactive
18 | Clc1ccc(N2CCN(c3ncnc4c3oc3ccccc34)CC2)cc1 | inconclusive: 1.2 nM
19 | COc1cc(/C=C/C2=NC(=O)C(C)(C)O2)ccc1O | inconclusive: 7.4 nM

Of the compounds above, 8 have four or more nitrogen atoms:
Row | Structure (SMILES) | max dye-equivalent concentration
1 | OCCOCCNc1ncnc2c1cnn2-c1ccccc1 | inconclusive: 5.9 nM
3 | CCN1CCN(C(c2ccccc2F)c2nnnn2Cc2ccc3c(c2)OCO3)CC1 (configuration not stated) | inconclusive: 6 nM
6 | CCCc1nnc(SCCSc2nnc(CCC)n2N)n1N | inactive
8 | Cc1cc(C)c2cc(C(O)c3nnnn3Cc3ccccc3)c(=O)[nH]c2c1 (configuration not stated) | inconclusive: 6.3 nM
11 | c1ccc(CC2CCN(c3nc(N4CCOCC4)nc(N4CCOCC4)n3)CC2)cc1 | inactive
15 | COc1ccc(Cn2c(CCC(=O)NCc3ccco3)nc3cccnc32)cc1 | inactive
16 | CCc1nc(N2CCN(C(=O)c3ccco3)CC2)c2oc3ccccc3c2n1 | inconclusive: 8.5 nM
18 | Clc1ccc(N2CCN(c3ncnc4c3oc3ccccc34)CC2)cc1 | inconclusive: 1.2 nM

Continued.

Row | Structure (SMILES) | max dye-equivalent concentration
20 | CNc1ccnc(-c2ccccc2CN(C)C)n1 | inactive
21 | Cc1ccc(OCCN2C(=O)c3ccccc3C2=O)c(C)c1 | inactive
22 | Cc1ccc(-c2nnc3c4ccccc4c(C)nn23)cc1NC(=O)c1ccco1 | inconclusive: 7.4 nM
23 | C=CCSc1nnc(-c2c[nH]c3ccccc23)n1CCOC | inconclusive: 1.8 nM
24 | CC(=O)N=c1sc(C(C)(C)C)c(C)n1C | inactive
25 | CCN(CC)S(=O)(=O)c1cccc2c(N(C)C)cccc12 | inconclusive: 7.1 nM
26 | COc1ccc(C(=O)N(CN2CCCC2=O)c2nccs2)cc1OC | inconclusive: 7.5 nM
27 | CC(C)[C@H](NC(=O)NCc1ccco1)C(=O)O | inactive
28 | CC1(C)CC(=O)C2=C(C1)Oc1ncn3nc(-c4cccnc4)nc3c1C2c1ccccc1 (configuration not stated) | inactive
29 | CC1CCCN(C(=O)Cn2c(=O)oc3ccccc32)C1 (configuration not stated) | inconclusive: 2.2 nM
30 | COc1cccc(NC(=O)CNC(C)CCC(C)C)c1 (configuration not stated) | inconclusive: 1.4 nM
31 | O=C(O)[C@@H]1[C@@H]2C[C@@H]3[C@@H](OC(=O)[C@@H]31)[C@H]2Br | inactive
32 | COc1ccc2nc(Nc3nc(C)c(CCC(C)C)c(=O)[nH]3)nc(C)c2c1 | inactive
33 | O=C(O)C1C2C=CC(C2)C1C(=O)NCc1ccccn1 (configuration not stated) | inconclusive: 1.9 nM
34 | COc1ccc(S(=O)(=O)N2CCN(c3ccccc3OC)CC2)cc1OC | inconclusive: 1.1 nM
35 | O=C1c2ccccc2C(=O)N1n1c(=O)[nH]c2ccccc2c1=O | inconclusive: 8.3 nM
36 | CC(=O)OCC(=O)[C@@]1(O)CC[C@H]2[C@@H]3CCC4=CC(=O)CC[C@]4(C)[C@H]3C(=O)C[C@@]21C | active: 16 nM
37 | CCOC(=O)c1c(-c2ccccc2)csc1NC(=O)c1nn(CC)cc1Br | active: 37 nM
38 | Cn1c(CSc2nnc(SCc3ccccc3)s2)nc2ccccc21 | inconclusive: 1.2 nM

Row | Structure (SMILES) | max dye-equivalent concentration
39 | COc1ncc2nc(-c3ccc(F)cc3)c(=O)n(-c3ccccc3)c2n1 | inactive
40 | CC(=O)C1=C(O)C(=O)N(Cc2cccnc2)C1c1ccc(Cl)cc1Cl (configuration not stated) | inconclusive: 1.9 nM
41 | CNCC[C@H](Oc1ccc(C(F)(F)F)cc1)c1ccccc1 | inconclusive: 9.1 nM
42 | N#CCCn1c(=O)c(-c2cc(F)cc(F)c2)nc2cnc(Oc3cccc(Cl)c3)nc21 | inconclusive: 4.2 nM
43 | COc1ccc(C2C3=C(CCCC3=O)Nc3nc(SCc4ccccc4)nn32)cc1OC (configuration not stated) | active: 63 nM
44 | O=C(COc1ccc(Cl)cc1)Nc1ccc2oc(-c3ccncc3)nc2c1 | active: 26 nM
45 | CCOC(=O)CSc1nc2cc(C(=O)NCC3CCCO3)ccc2c(=O)n1Cc1ccco1 (configuration not stated) | inconclusive: 3.4 nM
46 | CCc1ccc(Nc2cc(=O)n(C3CCCCC3)c(=O)[nH]2)cc1 | inconclusive: 3.8 nM
47 | Cc1ccc(-c2nn(-c3ccccc3)cc2/C=C(\C#N)c2cccc(C#N)c2)o1 | active: 25 nM
48 | CC(=O)N1CCC2(CC1)C(C#N)=C(N)Oc1n[nH]c(C(F)(F)F)c12 | inconclusive: 3.8 nM
49 | CCOC(=O)N1CCN(C(=O)c2cnc(Nc3ccccc3OC)c3ccccc23)CC1 | inconclusive: 5 nM
50 | N#CCCn1c(=O)c(-c2cc(F)cc(F)c2)nc2cnc(OCc3ccccc3)nc21 | inconclusive: 4.6 nM
51 | COc1ccc(-c2nc3cnc(N(C)C)nc3n(C[C@H]3CCCO3)c2=O)cc1 | inconclusive: 3.1 nM
52 | CCOC(=O)N1CCC(NS(=O)(=O)c2cc(Br)cnc2N)CC1 | inconclusive: 3.3 nM
53 | Cc1cccc2nc(Cn3c(=O)n(CCC(=O)NCc4ccco4)c(=O)c4sccc43)cc(=O)n12 | active: 49 nM
54 | Cc1ccc2oc(NC(=O)N3CCOCC3)cc(=O)c2c1 | inconclusive: 6.7 nM
55 | CCOC(=O)c1ccc2c(c1)C1C=CCC1C(C(=O)O)N2 (configuration not stated) | inconclusive: 4.4 nM
56 | N#CCCn1c(=O)c(-c2cc(F)cc(F)c2)nc2cnc(N3CCOCC3)nc21 | inconclusive: 9.2 nM
57 | Cc1nc(SCC(=O)Nc2ccc(F)cc2)c2oc3ccccc3c2n1 | inactive

In another format: results already given
Row,Structure (SMILES),max dye-equivalent concentration
47,Cc1ccc(-c2nn(-c3ccccc3)cc2/C=C(\C#N)c2cccc(C#N)c2)o1,active: 25 nM
53,Cc1cccc2nc(Cn3c(=O)n(CCC(=O)NCc4ccco4)c(=O)c4sccc43)cc(=O)n12,active: 49 nM

— PubChem BioAssay AID590 (National Center for Advancing Translational Sciences (NCATS), 2007)
